PubChem BioAssay AID1259405 – NCATS, 2018
Purpose: 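Knock-downs that lift recombinant protein yield in hamster ovary cells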 (primary screen). Cell system: Chinese hamster CHO-K1 ovary cells with stable secreted eGFP expression. Reagent: single siRNA against mouse genes, 0.8 pmol siRNA per well (2 µl of 400 nM stock). Timing: 3 days. Measured: 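Per-well intracellular GFP measured by laser scanning cytometry, plus viability from ATP luminescence, each relative to plate median of non-targeting control wells, in %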. Scale: GFP, % of control: higher = more GFP per well, higher productivity; viability (ATP), % of control: higher = more viable cells (more ATP). Active means: 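Called active when intracellular GFP, relative to negative control, is at or above 120%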.
Here is a random part of about 50,000 reagents. Of all reagents, about 4,000 (8%) got an active call. 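Mouse siRNA library applied to hamster cells; one well for each siRNA.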 The numbers tell different reagents against one gene apart. Reagent sequences are not shown.

Lcat (lecithin cholesterol acyltransferase) #1
- GFP, % of control: 97.9
- viability (ATP), % of control: 68.5
- outcome: inactive

Lcat (lecithin cholesterol acyltransferase) #2
- GFP, % of control: 98.3
- viability (ATP), % of control: 153
- outcome: inactive

Lcat (lecithin cholesterol acyltransferase) #3
- GFP, % of control: 57.9
- viability (ATP), % of control: 103
- outcome: inactive

Vim (vimentin) #1
- GFP, % of control: 47.6
- viability (ATP), % of control: 49.6
- outcome: inactive

Vim (vimentin) #2
- GFP, % of control: 3.85
- viability (ATP), % of control: 10.8
- outcome: inactive

Zbtb40 (zinc finger and BTB domain containing 40) #1
- GFP, % of control: 44
- viability (ATP), % of control: 54.2
- outcome: inactive

Zbtb40 (zinc finger and BTB domain containing 40) #2
- GFP, % of control: 58.6
- viability (ATP), % of control: 60.4
- outcome: inactive

Ern2 (endoplasmic reticulum to nucleus signalling 2) #1
- GFP, % of control: 79.3
- viability (ATP), % of control: 58.6
- outcome: inactive

Ern2 (endoplasmic reticulum to nucleus signalling 2) #2
- GFP, % of control: 38.4
- viability (ATP), % of control: 35.4
- outcome: inactive

Ern2 (endoplasmic reticulum to nucleus signalling 2) #3
- GFP, % of control: 87.1
- viability (ATP), % of control: 81.7
- outcome: inactive

Lbp (lipopolysaccharide binding protein) #1
- GFP, % of control: 85.8
- viability (ATP), % of control: 75.6
- outcome: inactive

Lbp (lipopolysaccharide binding protein) #2
- GFP, % of control: 87.8
- viability (ATP), % of control: 86
- outcome: inactive

Lbp (lipopolysaccharide binding protein) #3
- GFP, % of control: 27.8
- viability (ATP), % of control: 29
- outcome: inactive

Pars2 (prolyl-tRNA synthetase (mitochondrial)(putative)) #1
- GFP, % of control: 94.5
- viability (ATP), % of control: 73.2
- outcome: inactive

Pars2 (prolyl-tRNA synthetase (mitochondrial)(putative)) #2
- GFP, % of control: 118
- viability (ATP), % of control: 115
- outcome: inactive

Pars2 (prolyl-tRNA synthetase (mitochondrial)(putative)) #3
- GFP, % of control: 72.6
- viability (ATP), % of control: 105
- outcome: inactive

Phf5a (PHD finger protein 5A) #1
- GFP, % of control: 69.7
- viability (ATP), % of control: 46.7
- outcome: inactive

Phf5a (PHD finger protein 5A) #2
- GFP, % of control: 99.3
- viability (ATP), % of control: 64.7
- outcome: inactive

Phf5a (PHD finger protein 5A) #3
- GFP, % of control: 76.3
- viability (ATP), % of control: 100
- outcome: inactive

Look-ups from the list.
Vim (vimentin) #1, viability (ATP), % of control: 49.6
Value for Zbtb40 (zinc finger and BTB domain containing 40) #2 in “outcome”: inactive

Next entries:
Or5b3 (olfactory receptor family 5 subfamily B member 3) #1
- GFP, % of control: 69.8
- viability (ATP), % of control: 75.6
- outcome: inactive

Or5b3 (olfactory receptor family 5 subfamily B member 3) #2
- GFP, % of control: 54.6
- viability (ATP), % of control: 66.1
- outcome: inactive

Or5b3 (olfactory receptor family 5 subfamily B member 3) #3
- GFP, % of control: 30.2
- viability (ATP), % of control: 48.1
- outcome: inactive

Srpra (signal recognition particle receptor alpha) #1
- GFP, % of control: 110
- viability (ATP), % of control: 80.9
- outcome: inactive

Srpra (signal recognition particle receptor alpha) #2
- GFP, % of control: 84.4
- viability (ATP), % of control: 82.5
- outcome: inactive

Srpra (signal recognition particle receptor alpha) #3
- GFP, % of control: 55.2
- viability (ATP), % of control: 52
- outcome: inactive

Tmem125 (transmembrane protein 125) #1
- GFP, % of control: 46.3
- viability (ATP), % of control: 65.7
- outcome: inactive

Tmem125 (transmembrane protein 125) #2
- GFP, % of control: 65.4
- viability (ATP), % of control: 75.3
- outcome: inactive

Tmem125 (transmembrane protein 125) #3
- GFP, % of control: 75.9
- viability (ATP), % of control: 75.4
- outcome: inactive

Tssk6 (testis-specific serine kinase 6)
- GFP, % of control: 70.4
- viability (ATP), % of control: 50
- outcome: inactive

Ext1 (exostosin glycosyltransferase 1) #1
- GFP, % of control: 111
- viability (ATP), % of control: 133
- outcome: inactive

Ext1 (exostosin glycosyltransferase 1) #2
- GFP, % of control: 79.3
- viability (ATP), % of control: 123
- outcome: inactive

Ext1 (exostosin glycosyltransferase 1) #3
- GFP, % of control: 81.8
- viability (ATP), % of control: 112
- outcome: inactive

Cd55b (CD55 molecule, decay accelerating factor for complement B) #1
- GFP, % of control: 80.5
- viability (ATP), % of control: 69.4
- outcome: inactive

Cd55b (CD55 molecule, decay accelerating factor for complement B) #2
- GFP, % of control: 79.9
- viability (ATP), % of control: 70.6
- outcome: inactive

Cd55b (CD55 molecule, decay accelerating factor for complement B) #3
- GFP, % of control: 59.3
- viability (ATP), % of control: 47.2
- outcome: inactive

F2rl2 (coagulation factor II thrombin receptor like 2) #1
- GFP, % of control: 73.5
- viability (ATP), % of control: 94.4
- outcome: inactive

F2rl2 (coagulation factor II thrombin receptor like 2) #2
- GFP, % of control: 55.3
- viability (ATP), % of control: 74.3
- outcome: inactive

F2rl2 (coagulation factor II thrombin receptor like 2) #3
- GFP, % of control: 53.6
- viability (ATP), % of control: 60.6
- outcome: inactive

Rab7b (RAB7B, member RAS oncogene family) #1
- GFP, % of control: 63.2
- viability (ATP), % of control: 47.5
- outcome: inactive

Rab7b (RAB7B, member RAS oncogene family) #2
- GFP, % of control: 50
- viability (ATP), % of control: 71.2
- outcome: inactive

Rab7b (RAB7B, member RAS oncogene family) #3
- GFP, % of control: 84.1
- viability (ATP), % of control: 65.9
- outcome: inactive
